We go through two molecules from article doi:10.1101/2021.04.20.440571.

Results are given in words; binding and its absence hold for the method and conditions named. Binding seen in cells or lysates may run through a third protein. Some binding calls cover weakened binding; strength is not graded here.

In this test the target is Nesprin-1 (mouse (endogenous in IIA1.6)) (UniProt Q6ZWR6). Nature of the test: co-IP.

B1: Sun-2 (protein, UniProt Q8BJS4 1-731)
chain: MSRRSQRLTRYSQDDNDGGSSSSGASSVAGSQGTVFKDSPLRTLKRKSSNMKHLSPAPQLGPSSDSHTSYYSESVVRESYIGSPRAVSLARSALLDDHLHSEPYWSGDLRGRRRRGTGGSESSKANGLTAESKASEDFFGSSSGYSSEDDLAGYTDSDQHSSGSRLRSAASRAGSFVWTLVTFPGRLFGLLYWWIGTTWYRLTTAASLLDVFVLTRSRHFSLNLKSFLWFLLLLLLLTGLTYGAWHFYPLGLQTLQPAVVSWWAAKESRKQPEVWESRDASQHFQAEQRVLSRVHSLERRLEALAADFSSNWQKEAIRLERLELRQGAAGHGGGSSLSHEDALSLLEGLVSRREATLKEDLRRDTVAHIQEELATLRAEHHQDSEDLFKKIVQASQESEARVQQLKTEWKSMTQEAFQESSVKELGRLEAQLASLRQELAALTLKQNSVADEVGLLPQKIQAARADVESQFPDWIRQFLLGDRGARSGLLQRDEMHAQLQELENKILTKMAEMQGKSAREAAASLGQILQKEGIVGVTEEQVHRIVKQALQRYSEDRIGMVDYALESGGASVISTRCSETYETKTALLSLFGIPLWYHSQSPRVILQPDVHPGNCWAFQGPQGFAVVRLSARIRPTAVTLEHVPKALSPNSTISSAPKDFAIFGFDEDLQQEGTLLGTFAYDQDGEPIQTFYFQASKMATYQVVELRILTNWGHPEYTCIYRFRVHGEPAH
With B1, the binding result is “no binding”.

B2: Sun-1 (protein, UniProt Q9D666 1-913)
chain: MDFSRLHTYTPPQCVPENTGYTYALSSSYSSDALDFETEHKLEPVFDSPRMSRRSLRLVTTASYSSGDSQAIDSHISTSRATPAKGRETRTVKQRRSASKPAFSINHLSGKGLSSSTSHDSSCSLRSATVLRHPVLDESLIREQTKVDHFWGLDDDGDLKGGNKAATQGNGELAAEVASSNGYTCRDCRMLSARTDALTAHSAIHGTTSRVYSRDRTLKPRGVSFYLDRTLWLAKSTSSSFASFIVQLFQVVLMKLNFETYKLKGYESRAYESQSYETKSHESEAHLGHCGRMTAGELSRVDGESLCDDCKGKKHLEIHTATHSQLPQPHRVAGAMGRLCIYTGDLLVQALRRTRAAGWSVAEAVWSVLWLAVSAPGKAASGTFWWLGSGWYQFVTLISWLNVFLLTRCLRNICKVFVLLLPLLLLLGAGVSLWGQGNFFSLLPVLNWTAMQPTQRVDDSKGMHRPGPLPPSPPPKVDHKASQWPQESDMGQKVASLSAQCHNHDERLAELTVLLQKLQIRVDQVDDGREGLSLWVKNVVGQHLQEMGTIEPPDAKTDFMTFHHDHEVRLSNLEDVLRKLTEKSEAIQKELEETKLKAGSRDEEQPLLDRVQHLELELNLLKSQLSDWQHLKTSCEQAGARIQETVQLMFSEDQQGGSLEWLLEKLSSRFVSKDELQVLLHDLELKLLQNITHHITVTGQAPTSEAIVSAVNQAGISGITEAQAHIIVNNALKLYSQDKTGMVDFALESGGGSILSTRCSETYETKTALLSLFGVPLWYFSQSPRVVIQPDIYPGNCWAFKGSQGYLVVRLSMKIYPTTFTMEHIPKTLSPTGNISSAPKDFAVYGLETEYQEEGQPLGRFTYDQEGDSLQMFHTLERPDQAFQIVELRVLSNWGHPEYTCLYRFRVHGEPIQ
As to B2, the binding result was “binds”.
